This assay concerns the target recombinant TNF-α (UniProt P01375). Description: SPR; TNF-α immobilised on a COOH sensor chip (imSPR-Pro); analyte injected at 30 µL/min, 200 s association, 600 s dissociation; 10 mM HEPES-NaOH, 150 mM NaCl, 0.05% Tween-20, pH (7.4 or 8.0) not told for the TNF-α table; 1:1 Langmuir fit; both purified.

Sequences of proteins named here, by UniProt entry; tags and fusion partners are left off. Residues count along the entry.
UniProt P01375, residues 77-233: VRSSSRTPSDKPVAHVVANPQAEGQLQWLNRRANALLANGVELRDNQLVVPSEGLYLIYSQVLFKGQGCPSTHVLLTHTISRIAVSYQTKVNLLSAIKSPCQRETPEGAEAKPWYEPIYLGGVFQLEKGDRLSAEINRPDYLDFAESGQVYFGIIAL
UniProt P02769, residues 25-607: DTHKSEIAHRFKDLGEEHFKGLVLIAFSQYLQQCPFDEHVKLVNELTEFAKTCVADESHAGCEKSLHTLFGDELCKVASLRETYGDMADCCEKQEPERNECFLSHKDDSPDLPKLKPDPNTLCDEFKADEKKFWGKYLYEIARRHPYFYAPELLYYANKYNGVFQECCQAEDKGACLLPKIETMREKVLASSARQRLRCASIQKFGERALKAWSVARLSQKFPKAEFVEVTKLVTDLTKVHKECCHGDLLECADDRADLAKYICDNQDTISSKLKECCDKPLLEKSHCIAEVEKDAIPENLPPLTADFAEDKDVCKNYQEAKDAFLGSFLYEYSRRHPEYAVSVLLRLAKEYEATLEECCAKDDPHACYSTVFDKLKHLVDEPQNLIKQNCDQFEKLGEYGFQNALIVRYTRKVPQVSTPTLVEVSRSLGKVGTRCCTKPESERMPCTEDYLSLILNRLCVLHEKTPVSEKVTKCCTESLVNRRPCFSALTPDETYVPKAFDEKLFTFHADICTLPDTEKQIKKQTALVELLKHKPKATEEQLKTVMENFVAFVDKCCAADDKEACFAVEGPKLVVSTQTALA

Here are results for 1 substance from paper PMC12607495.

These are yes or no findings as the source states them, for the method shown.

Regarding “Serum albumin (from UniProt P02769 25-607)”, the binding entry is “no binding”.
